# The supplement of paper PMC6411743
# ± gives the standard deviation of the averaged measurements. This is a selection; strong and weak results do not stand in their true shares.
# Columns and labels:
# Test in all cases: NP40-soluble protein abundance relative to vehicle (solubility fold change) (ratio); higher = more soluble protein in presence of ATP
# [1] = molecular target: T1, C9JA69 and related entries (UniProt Q8WY36)
# T1 sequence (whole entry): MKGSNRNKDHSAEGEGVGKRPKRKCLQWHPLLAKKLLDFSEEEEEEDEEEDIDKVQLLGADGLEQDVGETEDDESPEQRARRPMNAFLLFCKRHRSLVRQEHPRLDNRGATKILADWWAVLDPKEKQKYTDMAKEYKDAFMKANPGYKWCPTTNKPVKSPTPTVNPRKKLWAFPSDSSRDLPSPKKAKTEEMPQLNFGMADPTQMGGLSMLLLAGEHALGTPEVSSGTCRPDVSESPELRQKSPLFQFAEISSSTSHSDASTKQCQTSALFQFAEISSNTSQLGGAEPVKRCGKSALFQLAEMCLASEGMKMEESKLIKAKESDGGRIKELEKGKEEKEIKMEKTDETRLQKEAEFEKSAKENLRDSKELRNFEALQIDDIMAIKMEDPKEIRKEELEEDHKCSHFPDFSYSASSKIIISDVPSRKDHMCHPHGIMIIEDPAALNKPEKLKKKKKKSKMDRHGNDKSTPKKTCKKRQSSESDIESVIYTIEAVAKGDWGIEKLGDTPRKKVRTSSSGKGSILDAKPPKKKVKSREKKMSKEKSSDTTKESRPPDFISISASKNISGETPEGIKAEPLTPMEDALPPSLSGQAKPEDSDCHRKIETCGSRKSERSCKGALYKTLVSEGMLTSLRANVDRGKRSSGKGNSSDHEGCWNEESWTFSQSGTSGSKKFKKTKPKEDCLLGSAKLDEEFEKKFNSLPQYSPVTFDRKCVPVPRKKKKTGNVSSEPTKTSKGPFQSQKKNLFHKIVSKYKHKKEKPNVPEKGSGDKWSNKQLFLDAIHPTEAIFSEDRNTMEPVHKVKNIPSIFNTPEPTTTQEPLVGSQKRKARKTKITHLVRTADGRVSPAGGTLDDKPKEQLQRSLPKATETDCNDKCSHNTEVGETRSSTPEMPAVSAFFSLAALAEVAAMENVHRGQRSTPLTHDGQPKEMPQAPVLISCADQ
# Procedure, shortened: (§1)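 In three independent experiments, Jurkat crude lysate made by Dounce homogenisation was treated for 10 min at room temperature and then 3 min at 37 °C with eight concentrations ranging from 0.1 to 10 mM. It was then solubilised with 0.8% NP40 plus benzonase for 60 min at 4 °C and ultracentrifuged. The supernatant was TMT-labelled for LC-MS/MS, and each value is the fold change against the detergent-processed vehicle for the same replicate, using vsn-normalised intensities.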
# [2] = molecular target: T2, D6R9V8 and related entries (UniProt Q9UKY7)
# T2 sequence (whole entry): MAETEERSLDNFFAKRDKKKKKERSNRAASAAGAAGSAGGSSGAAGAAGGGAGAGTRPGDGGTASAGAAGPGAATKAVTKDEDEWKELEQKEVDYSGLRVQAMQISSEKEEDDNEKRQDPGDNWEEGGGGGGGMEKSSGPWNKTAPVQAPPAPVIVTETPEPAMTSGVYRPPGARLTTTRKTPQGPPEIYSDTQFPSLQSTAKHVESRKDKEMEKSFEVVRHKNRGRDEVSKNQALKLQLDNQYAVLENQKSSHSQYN
# Procedure, shortened: as §1
# [3] = molecular target: T3, UniProt A2RTX5 and related entries
# T3 sequence (whole entry): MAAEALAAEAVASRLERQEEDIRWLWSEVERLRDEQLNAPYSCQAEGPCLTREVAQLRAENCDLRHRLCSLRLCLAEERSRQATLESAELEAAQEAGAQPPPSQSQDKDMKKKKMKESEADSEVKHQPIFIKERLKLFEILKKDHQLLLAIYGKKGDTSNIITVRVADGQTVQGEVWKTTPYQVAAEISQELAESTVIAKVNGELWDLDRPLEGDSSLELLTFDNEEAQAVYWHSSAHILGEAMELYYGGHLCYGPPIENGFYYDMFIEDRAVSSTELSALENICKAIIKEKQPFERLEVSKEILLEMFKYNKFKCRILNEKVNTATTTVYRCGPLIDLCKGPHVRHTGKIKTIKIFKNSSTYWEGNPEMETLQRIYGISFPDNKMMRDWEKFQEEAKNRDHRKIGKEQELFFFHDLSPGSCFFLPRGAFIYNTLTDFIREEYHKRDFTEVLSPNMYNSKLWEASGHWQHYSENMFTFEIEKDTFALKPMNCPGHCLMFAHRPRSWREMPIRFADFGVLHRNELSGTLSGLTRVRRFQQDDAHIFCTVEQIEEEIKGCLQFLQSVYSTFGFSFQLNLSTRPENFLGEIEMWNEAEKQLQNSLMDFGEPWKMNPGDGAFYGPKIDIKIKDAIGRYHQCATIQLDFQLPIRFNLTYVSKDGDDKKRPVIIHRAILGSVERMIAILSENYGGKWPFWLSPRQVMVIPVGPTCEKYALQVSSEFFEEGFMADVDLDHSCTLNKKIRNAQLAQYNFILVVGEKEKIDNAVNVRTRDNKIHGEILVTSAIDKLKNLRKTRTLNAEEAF
# Procedure, shortened: as §1
# [4] = molecular target: T4, UniProt A3KN83 and related entries
# T4 sequence (whole entry): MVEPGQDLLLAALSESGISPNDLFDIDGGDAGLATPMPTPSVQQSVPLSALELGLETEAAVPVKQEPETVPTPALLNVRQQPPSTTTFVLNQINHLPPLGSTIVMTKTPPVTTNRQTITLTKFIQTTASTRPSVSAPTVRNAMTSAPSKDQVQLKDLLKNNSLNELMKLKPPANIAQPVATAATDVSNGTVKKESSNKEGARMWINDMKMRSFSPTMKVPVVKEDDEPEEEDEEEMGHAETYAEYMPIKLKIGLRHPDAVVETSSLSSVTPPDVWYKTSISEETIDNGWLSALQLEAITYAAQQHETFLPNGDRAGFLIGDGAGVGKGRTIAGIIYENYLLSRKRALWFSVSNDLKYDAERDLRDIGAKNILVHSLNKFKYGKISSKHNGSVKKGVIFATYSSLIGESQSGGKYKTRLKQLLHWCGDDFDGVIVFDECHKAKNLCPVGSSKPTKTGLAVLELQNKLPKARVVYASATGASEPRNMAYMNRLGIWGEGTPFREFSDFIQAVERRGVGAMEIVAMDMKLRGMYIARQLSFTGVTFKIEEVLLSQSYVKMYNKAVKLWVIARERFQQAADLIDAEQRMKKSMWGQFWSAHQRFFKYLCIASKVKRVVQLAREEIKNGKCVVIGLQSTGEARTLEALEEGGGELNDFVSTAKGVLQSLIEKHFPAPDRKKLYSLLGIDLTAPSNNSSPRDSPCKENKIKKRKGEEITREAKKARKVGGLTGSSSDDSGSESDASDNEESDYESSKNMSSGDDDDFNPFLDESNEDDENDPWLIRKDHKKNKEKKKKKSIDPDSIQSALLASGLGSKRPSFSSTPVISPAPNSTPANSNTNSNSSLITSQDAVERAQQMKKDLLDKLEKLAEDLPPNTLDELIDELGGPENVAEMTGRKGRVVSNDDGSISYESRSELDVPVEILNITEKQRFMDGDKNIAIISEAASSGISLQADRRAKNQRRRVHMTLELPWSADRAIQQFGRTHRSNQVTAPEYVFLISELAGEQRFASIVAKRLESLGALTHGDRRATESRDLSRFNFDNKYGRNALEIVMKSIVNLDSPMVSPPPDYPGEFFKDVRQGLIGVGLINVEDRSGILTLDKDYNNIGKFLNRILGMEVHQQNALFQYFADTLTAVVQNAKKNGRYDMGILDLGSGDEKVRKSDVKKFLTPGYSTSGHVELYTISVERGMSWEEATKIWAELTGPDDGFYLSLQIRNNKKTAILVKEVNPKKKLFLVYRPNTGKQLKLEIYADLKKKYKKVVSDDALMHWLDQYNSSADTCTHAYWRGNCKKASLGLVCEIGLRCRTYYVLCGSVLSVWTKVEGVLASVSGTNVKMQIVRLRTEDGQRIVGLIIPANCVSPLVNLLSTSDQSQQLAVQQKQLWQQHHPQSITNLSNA
# Procedure, shortened: as §1
structure (smiles),measurement,setting,value
Nc1ncnc2c1ncn2[C@@H]1O[C@H](COP(=O)(O)OP(=O)(O)OP(=O)(O)O)[C@@H](O)[C@H]1O [adenosine triphosphate],NP40-soluble protein abundance,[1]; concentration: 1mM,1.06 ± 0.014
same,NP40-soluble protein abundance,[1]; concentration: 2mM,1.08 ± 0.022
same,NP40-soluble protein abundance,[1]; concentration: 4mM,1.11 ± 0.034
same,NP40-soluble protein abundance,[1]; concentration: 6mM,1.2 ± 0.047
same,NP40-soluble protein abundance,[1]; concentration: 8mM,1.1 ± 0.04
same,NP40-soluble protein abundance,[1]; concentration: 10mM,1.13 ± 0.074
same,NP40-soluble protein abundance,[2]; concentration: 1mM,0.892 ± 0.078
same,NP40-soluble protein abundance,[2]; concentration: 2mM,0.928 ± 0.07
same,NP40-soluble protein abundance,[2]; concentration: 4mM,0.903 ± 0.051
same,NP40-soluble protein abundance,[2]; concentration: 6mM,1.03 ± 0.09
same,NP40-soluble protein abundance,[2]; concentration: 8mM,0.898 ± 0.065
same,NP40-soluble protein abundance,[2]; concentration: 10mM,0.898 ± 0.087
same,NP40-soluble protein abundance,[3]; concentration: 1mM,0.975 ± 0.021
same,NP40-soluble protein abundance,[3]; concentration: 2mM,0.992 ± 0.077
same,NP40-soluble protein abundance,[3]; concentration: 4mM,0.998 ± 0.046
same,NP40-soluble protein abundance,[3]; concentration: 6mM,0.944 ± 0.077
same,NP40-soluble protein abundance,[3]; concentration: 8mM,0.98 ± 0.091
same,NP40-soluble protein abundance,[3]; concentration: 10mM,0.997 ± 0.086
same,NP40-soluble protein abundance,[4]; concentration: 1mM,0.957 ± 0.015
same,NP40-soluble protein abundance,[4]; concentration: 2mM,0.974 ± 0.049
same,NP40-soluble protein abundance,[4]; concentration: 4mM,0.949 ± 0.047
same,NP40-soluble protein abundance,[4]; concentration: 6mM,0.932 ± 0.079
same,NP40-soluble protein abundance,[4]; concentration: 8mM,0.94 ± 0.027
same,NP40-soluble protein abundance,[4]; concentration: 10mM,0.973 ± 0.05

# Part of the list above, reformatted.
structure (smiles) | measurement | setting | value
Nc1ncnc2c1ncn2[C@@H]1O[C@H](COP(=O)(O)OP(=O)(O)OP(=O)(O)O)[C@@H](O)[C@H]1O [adenosine triphosphate] | NP40-soluble protein abundance | [1]; concentration: 6mM | 1.2 ± 0.047
same | NP40-soluble protein abundance | [1]; concentration: 10mM | 1.13 ± 0.074
